Patent US20230031980A1 (SHANGHAI NINTH PEOPLE S HOSPITAL SHANGHAI JIAO TONG …, published 2023)
Results are given in words; binding and its absence hold for the method and conditions named. Binding seen in cells or lysates may run through a third protein. Some binding calls cover weakened binding; strength is not graded here. For some assays here: Tags and fused reporters may be left off the sequences shown.

The chains behind the UniProt entries cited, without tags or fusion partners. Where a name states a change or a piece, a line headed by the entry shows the natural chain unless it says otherwise.
UniProt Q9UL03: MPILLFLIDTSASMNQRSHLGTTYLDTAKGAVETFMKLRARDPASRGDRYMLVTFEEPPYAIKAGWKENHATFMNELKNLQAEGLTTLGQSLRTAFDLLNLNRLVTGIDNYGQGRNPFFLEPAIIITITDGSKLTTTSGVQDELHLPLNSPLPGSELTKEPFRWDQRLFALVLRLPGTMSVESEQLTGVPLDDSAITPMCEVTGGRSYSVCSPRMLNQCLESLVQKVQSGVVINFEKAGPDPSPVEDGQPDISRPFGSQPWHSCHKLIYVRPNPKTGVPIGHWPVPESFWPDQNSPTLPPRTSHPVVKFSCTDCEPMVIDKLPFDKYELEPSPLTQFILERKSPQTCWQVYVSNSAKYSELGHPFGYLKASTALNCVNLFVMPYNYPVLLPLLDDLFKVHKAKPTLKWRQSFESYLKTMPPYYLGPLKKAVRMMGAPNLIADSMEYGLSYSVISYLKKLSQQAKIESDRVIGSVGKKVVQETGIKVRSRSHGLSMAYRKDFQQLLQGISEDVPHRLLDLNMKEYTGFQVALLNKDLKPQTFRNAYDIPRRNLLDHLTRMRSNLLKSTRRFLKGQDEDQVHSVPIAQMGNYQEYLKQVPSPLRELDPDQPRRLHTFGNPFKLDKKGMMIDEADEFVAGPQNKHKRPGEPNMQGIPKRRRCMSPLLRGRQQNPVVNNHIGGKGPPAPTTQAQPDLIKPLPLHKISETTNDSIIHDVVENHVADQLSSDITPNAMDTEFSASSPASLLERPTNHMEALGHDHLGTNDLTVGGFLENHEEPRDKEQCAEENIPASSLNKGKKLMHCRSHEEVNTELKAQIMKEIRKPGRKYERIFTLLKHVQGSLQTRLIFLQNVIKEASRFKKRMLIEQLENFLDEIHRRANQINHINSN
UniProt Q68E01: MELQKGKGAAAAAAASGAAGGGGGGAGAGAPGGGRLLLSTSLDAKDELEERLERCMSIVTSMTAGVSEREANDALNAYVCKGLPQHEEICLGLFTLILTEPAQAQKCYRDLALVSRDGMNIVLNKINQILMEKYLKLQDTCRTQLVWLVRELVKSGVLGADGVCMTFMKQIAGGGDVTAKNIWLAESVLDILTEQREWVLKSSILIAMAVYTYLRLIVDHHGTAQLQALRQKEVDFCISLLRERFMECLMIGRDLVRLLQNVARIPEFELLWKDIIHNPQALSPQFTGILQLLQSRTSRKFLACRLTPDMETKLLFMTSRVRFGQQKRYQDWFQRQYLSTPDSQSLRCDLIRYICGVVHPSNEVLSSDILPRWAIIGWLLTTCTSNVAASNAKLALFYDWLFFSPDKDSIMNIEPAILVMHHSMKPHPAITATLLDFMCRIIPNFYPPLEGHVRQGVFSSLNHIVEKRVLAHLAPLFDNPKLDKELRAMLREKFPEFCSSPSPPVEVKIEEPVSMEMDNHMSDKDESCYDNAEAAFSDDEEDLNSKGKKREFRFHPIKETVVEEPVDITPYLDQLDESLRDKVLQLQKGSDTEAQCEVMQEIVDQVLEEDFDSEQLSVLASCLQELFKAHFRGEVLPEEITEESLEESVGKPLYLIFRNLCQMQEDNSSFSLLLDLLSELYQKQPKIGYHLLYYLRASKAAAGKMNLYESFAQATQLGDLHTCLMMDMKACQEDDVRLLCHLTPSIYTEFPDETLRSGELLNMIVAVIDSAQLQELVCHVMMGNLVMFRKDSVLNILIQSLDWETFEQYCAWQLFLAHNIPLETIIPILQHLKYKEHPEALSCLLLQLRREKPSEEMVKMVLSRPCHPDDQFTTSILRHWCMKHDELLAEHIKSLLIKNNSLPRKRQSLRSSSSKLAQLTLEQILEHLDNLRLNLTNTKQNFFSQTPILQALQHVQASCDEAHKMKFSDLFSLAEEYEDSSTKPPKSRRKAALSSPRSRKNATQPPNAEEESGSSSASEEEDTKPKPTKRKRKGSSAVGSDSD

Key:
[1] = target: INTS6 (integrator complex subunit 6), endogenous full-length protein (human) (UniProt Q9UL03); test: IP-MS with anti-INTS3 antibody in SAGE1 negative 293T cells
[2] = target: INTS3CTD (C-terminal domain of INTS3, residues 572-978) (human) (UniProt Q68E01); test: GST pull-down competition; GST-SAGE1I3BD added in equal molar ratio to the INTS3CTD-INTS6I3BD complex; competitor INTS6I3BD

| binding [1] | binding [2] | Molecule |
| --- | --- | --- |
| binds |  | INTS3 (integrator complex subunit 3), endogenous full-length protein (from UniProt Q68E01 2-1043) |
|  | binds | SAGE1I3BD (INTS3-binding domain of SAGE1, residues 818-904) (other, Expressed in E. coli with a His-SUMO or GST tag; also called SAGE1818-904; small C-terminal region of SAGE1) AMAKKINDDIKYQLMKEVRRFGQNYERIFILLEEVQGSMKVKRQFVEFTIKEAARFKKVVLIQQLEKALKEIDSHCHLRKVKHMRKR |
